Screen size: about 300,000 compounds; about 5,400 (1.8%) were called active. This list was built around the results that the source calls inconclusive (neither active nor inactive); the mix of calls is not that of the screen. Calls come from the whole dose curve; tested in HEK293 cells. Potencies beside an inconclusive call are fits to weak or partial responses and may not hold up.
Experiment: qHTS for inhibitors of binding or entry into cells for Marburg Virus
Conditions: Marburg virus pseudotyped entry inhibition, cell reporter; activity change, negative = inhibition: at 37.8 µM (top of the series) unless noted
With COc1ccc(-c2ccc(C#N)c(OC(=O)c3c(Cl)cccc3Cl)n2)cc1 the “activity change, negative = inhibition” value was inactive: 15.6%. With COc1cc2c(cc1OC)-c1cc(Nc3ccc4c(c3)OCCO4)nc(=O)n1CC2 the Potency was inconclusive: 5.01 µM [inhibitor, partial curve, poor fit]. In the case of COc1cc(CC(=O)Nc2ccccc2N2CCOCC2)cc(OC)c1OC, the “activity change, negative = inhibition” value is reported as inactive: 7.33% [at 46.1 µM]. For COc1cc2[nH]c(=S)n(Cc3ccc(F)cc3)c(=O)c2cc1OC, the Potency was inconclusive: 12.6 µM [activator, single point]. In the case of Cn1ncc(N2CCN(S(=O)(=O)c3ccc(Br)cc3)CC2)c(Cl)c1=O, the Potency is reported as inconclusive: 3.55 µM [inhibitor, single point]. In the case of CC(=O)N[C@@H](Cc1c[nH]c2ccccc12)C(=O)OCC(=O)NCc1ccc2c(c1)OCO2, the “activity change, negative = inhibition” value is reported as inactive: -0.406% [at 46.1 µM]. In the case of Cc1nc(Nc2ccccc2)sc1C(=O)c1ccc(F)cc1, the “activity change, negative = inhibition” value is reported as inactive: -3.47%. For Cc1ccc(Nc2c(-c3ccc(N4CCOCC4)cc3)nc3cccc(C)n23)cc1, the Potency was inconclusive: 3.55 µM [activator, single point]. For Cc1cccc(CN2C(=O)c3ccccc3S(=O)(=O)c3ccc(C(=O)N(C)Cc4ccccc4)cc32)c1, the Potency was inconclusive: 35.5 µM [inhibitor, single point]. With Cc1cccc(/C=N/NC(=O)CN2CCCCCCC2)c1 the Potency was inconclusive: 7.94 µM [activator, partial curve, poor fit]. For CCOC(=O)c1c(C)[nH]c(C)c1C(=O)CSc1nc2ccccc2c(=O)n1-c1ccc(Cl)cc1, the Potency was inconclusive: 11.2 µM [inhibitor, partial curve, poor fit]. In the case of COc1cccc(NC(=O)CCc2nnc3n(Cc4ccccc4Cl)c(=O)c4ccccc4n23)c1, the “activity change, negative = inhibition” value is reported as inactive: 7.67% [at 46.1 µM]. In the case of CCCCN(C(=O)c1cc(-c2ccc(F)cc2)nc2ccccc12)c1c(N)n(CCCC)c(=O)[nH]c1=O, the Potency is reported as inconclusive: 14.1 µM [inhibitor, partial curve, poor fit]. In the case of CCN=C(Nc1ccc2c(c1)OCO2)SC1CC(=O)N(c2ccc(OC)cc2)C1=O (stereo not drawn), the Potency is reported as inconclusive: 11.6 µM [inhibitor, partial curve, poor fit]. In the case of O=C(N/N=C/c1cccnc1)C12CC3CC(CC(C3)C1)C2, the Potency is reported as inconclusive: 35.5 µM [activator, single point]. For CCCc1nnc(NC(=O)CCC(=O)NCCc2ccc(Cl)cc2)s1, the “activity change, negative = inhibition” value was inactive: 6.22% [at 46.1 µM]. In the case of CCn1cc(CN2CCC(C(=O)Nc3ccc(Oc4cccnc4)cc3)CC2)cn1, the Potency is reported as inconclusive: 5.62 µM [activator, single point]. For Cc1ccc(NC(=O)c2c(C)nc3sc(C(=O)Nc4ccc(F)cc4)c(N)c3c2-c2ccc(Cl)cc2)c(C)c1, the “activity change, negative = inhibition” value was inactive: 0.395% [at 46.1 µM]. With COc1cccc2[nH]c3c(Cl)ncnc3c12 the Potency was inconclusive: 0.282 µM [activator, partial curve, poor fit]. In the case of COc1ccc(CCN(C)C2CCCN(C(=O)c3sccc3C)C2)cc1OC (stereo not drawn), the “activity change, negative = inhibition” value is reported as inactive: 9.42%. In the case of COc1cccc(CN2CCN(C(=O)c3cc(-c4ccncc4)nc4ccc(C)cc34)CC2)c1, the Potency is reported as inconclusive: 12.6 µM [inhibitor, partial curve, poor fit]. With COc1cc(C(C)=O)ccc1Oc1ncnc2c1cnn2-c1cccc(Cl)c1 the “activity change, negative = inhibition” value was inactive: -3.74%. With O=C(Cc1ccccc1)N/N=C/c1cccs1 the Potency was inconclusive: 14.1 µM [activator, partial curve, poor fit]. In the case of CC1CCc2sc(C(=O)NNC(=O)c3ccncc3)cc2C1 (stereo not drawn), the “activity change, negative = inhibition” value is reported as inactive: 1.56%. In the case of Cc1ccc(NC(=O)COC(=O)c2cc(Cl)ccc2[N+](=O)[O-])cc1, the Potency is reported as inconclusive: 0.112 µM [activator, full curve, poor fit]. With COc1ccc(S(=O)(=O)N2CCOCC2)cc1NC(=O)CO/N=C/c1ccccc1OC(F)F the Potency was inconclusive: 6.31 µM [activator, single point]. With CC12CN3CCN(CC(C3)/C1=N\N=C1/C3CN4CCN(C3)CC1(C)C4)C2 the Potency was inconclusive: 29.1 µM [activator, single point]. For COc1ccc(-c2cc(C(=O)N(C)CC(=O)Nc3ccccc3Cl)c3ccccc3n2)cc1OC, the Potency was inconclusive: 35.5 µM [inhibitor, single point]. With Cc1ccnc(NC(=O)c2ccc(N3C(=O)CCC3=O)cc2)c1 the Potency was inconclusive: 3.55 µM [activator, full curve]. For COc1ccccc1N1CCN(Cc2ccc(Br)s2)CC1, the Potency was inconclusive: 0.651 µM [activator, partial curve, poor fit]. For CCOC(=O)c1sc(NC(=O)c2cc(-c3cccc(O)c3)on2)c(C(=O)OCC)c1C, the “activity change, negative = inhibition” value was inactive: -17.3%. With CC(=O)c1ccc([C@@H]2C=C[C@H](O)[C@@H](CO)O2)cc1 the Potency was “inactive”. In the case of O=C(NC1CCCC1)c1ccc(S(=O)(=O)N2CCCC2)cc1, the Potency is reported as inconclusive: 4.11 µM [inhibitor, single point]. In the case of CCC(NC(=O)Nc1nnc(C(F)(F)F)s1)(C(F)(F)F)C(F)(F)F, the Potency is reported as active: 2.51 µM. In the case of COc1cccc(/C=N/Nc2nc(Nc3ccc([N+](=O)[O-])cc3)nc(N3CCCC3)n2)c1O, the Potency is reported as active: 2 µM. For CCC(C(=O)Nc1ccc(N2CCOCC2)c(S(=O)(=O)Nc2ccccc2OC)c1)c1ccccc1 (stereo not drawn), the Potency was inconclusive: 1.12 µM [inhibitor, partial curve, poor fit]. For c1cnc2ccc3ncccc3c2c1, the “activity change, negative = inhibition” value was inactive: -0.566%. For COC(=O)c1ccc(C(C(=O)NC2CCCCC2)N(CCN2CCOCC2)C(=O)Cc2cccs2)cc1 (stereo not drawn), the Potency was inconclusive: 35.5 µM [activator, single point]. With CC(=O)NCCc1nc2ccccc2n1CCCCOc1ccc(Cl)cc1 the Potency was inconclusive: 25.1 µM [inhibitor, single point]. For Cc1ccc(N=C2NC(=O)/C(=C/c3cccnc3)S2)c(C)c1, the “activity change, negative = inhibition” value was inactive: -12.5%. In the case of CCOc1ccc(N(Cc2cc3ccc(C)cc3[nH]c2=O)C(=O)COC)cc1, the “activity change, negative = inhibition” value is reported as inactive: -1.11% [at 46.1 µM]. With CC(=O)Oc1ccc(NC(=O)Cc2ccccc2)c(C(=O)O)c1 the Potency was inconclusive: 2.82 µM [inhibitor, partial curve, poor fit]. With COc1ccc(NS(=O)(=O)c2cccc(C(=O)NNC(=O)c3cncc(Br)c3)c2)cc1 the Potency was inconclusive: 1 µM [inhibitor, single point].
% is set by controls: 0 for no effect and ±100 for the full control effect; potency is the fitted concentration of half-maximal effect.
